Tests used:
[1] = system: intestinal transit of the charcoal; assay: Vegetable carbon (charcoal) intestinal transit test in vivo; settings: therapeutic index, DL50 / charcoal ED50, rat i.v.
Experimental: B. The vegetable carbon method in vivo (charcoal method) which consists of administering by oral means to rats, which have fasted for 24 hours, 0.3ml/per rate of a mixture consisting of: 10g of charcoal and 5 g of gum arabic suspended in a volume of 100 cc of H2 O as well as at the same time the substance being studied, accordingly as desired, generally i.v., s.c., oral. After two hours the animals are killed and those are taken to be negative in which the charcoal has reached the first portion of the colon and the others positive, in the sense that the substance administered has slowed down the intestinal transit of the charcoal.
In effect the animals treated with a physiological solution (checks) are all negative after two hours.
D. I.T.1 is the therapeutic index under the profile of the antispastic activity in vivo, and it is obtained by recording the DL50 (column 2) with the ED50 of the charcoal test (column 3).

[2] = system: ileum of a cavy (BaCl2 spasm); assay: Antispastic activity in vitro, Magnus method, cavy ileum stimulated with BaCl2; format: cell-based; settings: therapeutic index, in vitro activity index (column 4) x DL50
Experimental: C. The method in vitro is that of Magnus, with the ileum of the cavy, and is in common use for all evaluations. It consists of extracting the ileum from the cavy and placing it in a receptacle which contains nutritive liquid, suitably oxygenated, and registering the movements of the organ which remains alive for several hours if maintained at a temperature of 37°. According to the traditional method followed by us, BaCl2 is put into the bath as a spasmisant: the reaction is a violent contraction of the organ. This contraction can be prevented by adding beforehand pharmaceuticals which inhibit spasms, and in this case our compounds.
The values recorded are expressed as relation between papaverine and the ED50 of our compounds. (As is known, the ED50 is the dose which results in a 50% reduction in spastic contraction).
E. I.T.2 is the therapeutic index under the profile of the antispastic activity in vitro and is given by the product between the in vitro antispastic activity index (column 4) and the corresponding DL50 (column 2).

CCCN(CCC)C(=O)C(Cc1ccc(OCCN(C(C)C)C(C)C)cc1)NC(=O)c1ccc(Cl)cc1 (racemic) [CR 727, O-(2'-di-isopropylamino-ethyl)-N-(p-chloro-benzoyl)-DL-tyrosil-di-n-propylamide]
I.T.1: DL50/ED50 in vivo [1]: 1.05
I.T.2: DL50 CR x ED50 pap./ED50 CR [2]: 40

CCCN(CCC)C(=O)C(Cc1ccc(OCCN2CCCCC2)cc1)NC(=O)c1ccccc1 (racemic) [CR 630, O-(2-piperidil -N'-ethyl)-N-benzoyl-DL-tyrosil-di-n-propylamide]
I.T.1: DL50/ED50 in vivo [1]: 0.9

CCCN(CCC)C(=O)C(Cc1ccc(OCCN(C)C)cc1)NC(=O)c1ccccc1 (racemic) [CR 592, O-(2dimethylamino-ethyl)-N-benzol-DL-Tyrosil-di-n-propilamide]
I.T.1: DL50/ED50 in vivo [1]: 1.2
I.T.2: DL50 CR x ED50 pap./ED50 CR [2]: 14.0

CCCN(CCC)C(=O)C(Cc1ccc(OCCN(CC)CC)cc1)NC(=O)OCc1ccccc1 (racemic) [CR 832, O-(2-diethylamino-ethyl)-N-carbobenzoxy-DL-tyrosil-di-n-propylamide]
I.T.1: DL50/ED50 in vivo [1]: 1.9
I.T.2: DL50 CR x ED50 pap./ED50 CR [2]: 45.3

CN(C)CCOc1ccc(C[C@H](NC(=O)OCc2ccccc2)C(=O)NCc2ccccc2)cc1 [CR 612, O-(2-dimethylamino-ethyl)-N-carbobenzoxy-L-tyrosil-benzylamide]
I.T.1: DL50/ED50 in vivo [1]: 3.8
I.T.2: DL50 CR x ED50 pap./ED50 CR [2]: 30.5

CCCCNC(=O)C(Cc1ccc(OCCN(CC)CC)cc1)NC(=O)c1ccccc1 (racemic) [CR 786, O-(2-diethylamine-ethyl)-N-benzoyl-DL-tyrosil-n-butylamide]
I.T.1: DL50/ED50 in vivo [1]: 1.1
I.T.2: DL50 CR x ED50 pap./ED50 CR [2]: 6.5

CCCCCCNC(=O)C(Cc1ccc(OCCN2CCCC2)cc1)NC(=O)c1ccc(C)cc1 (racemic) [CR 826, 0-(2-pyrrolidil-N'-ethyl)-N-toluoyl-DL-tyrosil-n-hexylamide]
I.T.1: DL50/ED50 in vivo [1]: 2.4
I.T.2: DL50 CR x ED50 pap./ED50 CR [2]: 49.2

CCN(CC)C(=O)C(Cc1ccc(OCCN2CCN(C)CC2)cc1)NC(=O)c1ccccc1 (racemic) [CR 736, O-[2-(N"-methyl-piperazine)-N'-ethyl]-N-benzoyl-DL-tyrosildiethylamide]
I.T.1: DL50/ED50 in vivo [1]: 2.5
I.T.2: DL50 CR x ED50 pap./ED50 CR [2]: 4.0

CCCN(CCC)C(=O)C(Cc1ccc(OCCN(CC)CC)cc1)NC(=O)c1ccc(Cl)cc1 (racemic) [CR 716, O-(2-diethylamino-ethyl)-N-(p-chloro-benzoyl)-DL-tyrosil-di-n-propylamide]
I.T.1: DL50/ED50 in vivo [1]: 2.1
I.T.2: DL50 CR x ED50 pap./ED50 CR [2]: 89.1

CCCCNC(=O)C(Cc1ccc(OCCN2CCCC2)cc1)NC(=O)c1ccc(C)cc1 (racemic) [CR 651, O-(2-pyrrolidil-N'-ethyl)-N-toluoyl-DL-tyrosil-n-butylamide]
I.T.1: DL50/ED50 in vivo [1]: 2.1
I.T.2: DL50 CR x ED50 pap./ED50 CR [2]: 55.0

CCCN(CCC)C(=O)C(Cc1ccc(OCCN(CC)CC)cc1)NC(=O)OCc1ccccc1 [CR 627, O-(2-diethylamino-ethyl)-N-carbobenzoxy-D-tyrosil-di-n-propylamide]
I.T.1: DL50/ED50 in vivo [1]: 1.6
I.T.2: DL50 CR x ED50 pap./ED50 CR [2]: 48.9

CCCCNC(=O)C(Cc1ccc(OCCCN2CCN(C)CC2)cc1)NC(=O)c1ccccc1 (racemic) [CR 702, O-[3-(N"-methyl-piperazine)-N'-propyl]-N-benzoyl-DL-tyrosil-n-butylamide]
I.T.1: DL50/ED50 in vivo [1]: 1.3
I.T.2: DL50 CR x ED50 pap./ED50 CR [2]: 9.0

CCCNC(=O)C(Cc1ccc(OCCN2CCCC2)cc1)NC(=O)c1ccccc1 (racemic) [CR 821, O-(2-pyrrolidil-N'-ethyl)-N-benzoyl-DL-tyrosil-n-propylamide]
I.T.1: DL50/ED50 in vivo [1]: 3.4
I.T.2: DL50 CR x ED50 pap./ED50 CR [2]: 6.9

CCNC(=O)C(Cc1ccc(OCCCN2CCN(C)CC2)cc1)NC(=O)c1ccc(Cl)cc1 (racemic) [CR 714, O-[3-(N"-methyl-piperazine)-N'-propyl]-N-(p-chloro-benzoyl)-DL-tyrosil-ethylamide]
I.T.2: DL50 CR x ED50 pap./ED50 CR [2]: 34.4

CCNC(=O)C(Cc1ccc(OCCN(C(C)C)C(C)C)cc1)NC(=O)c1ccccc1 (racemic) [CR 711, O-(2-diisopropylamino-ethyl)-N-benzoyl-DL-tyrosil-ethylamide]
I.T.2: DL50 CR x ED50 pap./ED50 CR [2]: 34.4

CCCN(CCC)C(=O)C(Cc1ccc(OCCN(C)C)cc1)NC(=O)c1ccc(C)cc1 (racemic) [CR 615, O-(2-dimethylamino-ethyl)-N-toluoyl-DL-tyrosil-di-n-propylamide]
I.T.2: DL50 CR x ED50 pap./ED50 CR [2]: 33.2

CN(C)CCOc1ccc(C[C@H](NC(=O)OCc2ccccc2)C(=O)N2CCOCC2)cc1 [CR 606, O-(2-dimethylamino-ethyl)-N-carbobenzoxy-L-tyrosil-morpholylamide]
I.T.2: DL50 CR x ED50 pap./ED50 CR [2]: 24.3

CN(C)CCOc1ccc(CC(NC(=O)c2ccccc2)C(=O)N2CCOCC2)cc1 (racemic) [CR 611, O-(2-dimetylamino-ethyl)-N-benzoyl-DL-tyrosil-morpholilamide]
I.T.1: DL50/ED50 in vivo [1]: 1.8

CCN(CC)CCOc1ccc(CC(NC(=O)c2ccccc2)C(N)=O)cc1 (racemic) [CR 740, O-(2-dietylamino-ethyl)-N-benzoyl-DL-tyrosil-amide]
I.T.2: DL50 CR x ED50 pap./ED50 CR [2]: 36.4

CCCN(CCC)C(=O)C(Cc1ccc(OCCN(C(C)C)C(C)C)cc1)NC(=O)c1ccccc1 (racemic) [CR 624, O-(2-di-isopropylamino-ethyl)-N-benzoyl-DL-tyrosil-di-n-propylamide]
I.T.2: DL50 CR x ED50 pap./ED50 CR [2]: 27.5

CCCN(CCC)C(=O)C(Cc1ccc(OCCN(C)C)cc1)NC(=O)c1ccc([N+](=O)[O-])cc1 (racemic) [CR 620, O-(2-dimethylamino-ethyl)-N-(p-nitro-benzoyl)DL-tyrosil-di-n-propylamide]
I.T.2: DL50 CR x ED50 pap./ED50 CR [2]: 41.8

CN(C)CCOc1ccc(CC(NC(=O)c2ccccc2)C(=O)NCc2ccccc2)cc1 (racemic) [CR 616, O-(2-dimethylamino-ethyl)-N-benzoyl-DL-tyrosil-benzylamide]
I.T.2: DL50 CR x ED50 pap./ED50 CR [2]: 60.0

CCN(CC)CCOc1ccc(CC(NC(=O)c2ccccc2)C(=O)N2CCCC2)cc1 (racemic) [CR 614, O-(2-diethylamino-ethyl)-N-benzoyl-DL-tyrosil-pyrrolidilamide]
I.T.1: DL50/ED50 in vivo [1]: 1.1

CCCN(CCC)C(=O)C(Cc1ccc(OCCCCN(CC)CC)cc1)NC(=O)c1ccccc1 (racemic) [CR 829, O-(4-diethylamino-butyl)-N-benzoyl-DL-tyrosil-di-n-propylamide]
I.T.1: DL50/ED50 in vivo [1]: 1.3

COc1ccc(Cc2nccc3cc(OC)c(OC)cc23)cc1OC [Papaverine, papaverine, reference compound]
I.T.2: DL50 CR x ED50 pap./ED50 CR [2]: 27.2

O-(2-diisopropylamino-ethyl)-N-toluoyl-DL-tyrosil-n-butylamide [CR 709]
I.T.1: DL50/ED50 in vivo [1]: 1.1

CCCN(CCC)C(=O)C(Cc1ccc(OCCCN2CCN(Cc3ccccc3)CC2)cc1)NC(=O)c1ccccc1 (racemic) [CR 619, O-[3-(N"-benzylpiperazine)-N'-propyl]-N-benzoyl-DL-tyrosil-di-n-propylamide]
I.T.1: DL50/ED50 in vivo [1]: 1.6

CCNC(=O)C(Cc1ccc(OCCN(C)C)cc1)NC(=O)c1ccccc1 (racemic) [CR 608, O-(2-dimethylamino-ethyl)-N-benzoyl-DL-tyrosil-ethylamide]
I.T.1: DL50/ED50 in vivo [1]: 1.5

CCCN(CCC)C(=O)C(Cc1ccc(OC(C)C(C)CN(CC)CC)cc1)NC(=O)c1ccccc1 (racemic) [CR 700, O-(3-diethylamino-1,2-dimethyl-propyl)-N-benzoyl-DL-tyrosil-di-n-propylamide]
I.T.1: DL50/ED50 in vivo [1]: 0.95
